Measured values published in paper PMC4888278, “Structural determinant for inducing RORgamma specific inverse agonism triggered by a synthetic benzoxazinone ligand” (BMC Structural Biology, 2016).
These are yes or no findings as the source states them, for the method shown.

By UniProt entry, the sequences of proteins in these tests, tags left out. Residues count along the entry.
UniProt P51449, residues 259-518: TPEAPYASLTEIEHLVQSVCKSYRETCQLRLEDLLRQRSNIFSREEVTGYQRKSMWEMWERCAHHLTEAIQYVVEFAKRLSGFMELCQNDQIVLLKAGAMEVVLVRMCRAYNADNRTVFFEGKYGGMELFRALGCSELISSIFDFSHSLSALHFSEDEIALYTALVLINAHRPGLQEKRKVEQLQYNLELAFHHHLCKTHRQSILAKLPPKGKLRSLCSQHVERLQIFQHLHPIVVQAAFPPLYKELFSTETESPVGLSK

Molecular target: RORγ518 (human RORγ ligand binding domain, residues 259-518) (human) (UniProt P51449)
Experiment: SEC; Superdex 75 in 25 mM TRIS pH 8.0, 250 mM NaCl, 5 % glycerol, 2 mM DTT, after removal of GST; both purified

- binding: no binding
Substance: RORγ518 (human RORγ ligand binding domain, residues 259-518) (from UniProt P51449 259-518) (domain or fragment)
